The supplement of paper PMC12819154, “High-throughput peptide-centric local stability assay extends protein–ligand identification to membrane proteins, tissues and bacteria” (Nature Structural & Molecular Biology, 2025)
The list shows a part of the results. Small differences around the control level are noise.

Chains of the proteins cited; added tags and fusions are not shown. Lines headed by an entry give the natural chain unless they say otherwise; changes in a name come on top.
UniProt Q9NY27: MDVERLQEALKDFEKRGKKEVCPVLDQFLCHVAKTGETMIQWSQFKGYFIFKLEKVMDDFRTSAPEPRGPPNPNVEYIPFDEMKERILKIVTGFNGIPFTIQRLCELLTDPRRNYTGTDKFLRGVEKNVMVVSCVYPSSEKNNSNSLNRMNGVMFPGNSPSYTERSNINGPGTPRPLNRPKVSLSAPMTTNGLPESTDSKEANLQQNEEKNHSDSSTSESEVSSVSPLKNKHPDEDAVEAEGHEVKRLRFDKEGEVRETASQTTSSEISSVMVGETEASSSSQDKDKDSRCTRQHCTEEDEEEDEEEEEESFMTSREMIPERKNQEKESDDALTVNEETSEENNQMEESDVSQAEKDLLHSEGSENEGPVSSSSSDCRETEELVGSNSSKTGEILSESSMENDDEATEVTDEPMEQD
UniProt Q9NYP9: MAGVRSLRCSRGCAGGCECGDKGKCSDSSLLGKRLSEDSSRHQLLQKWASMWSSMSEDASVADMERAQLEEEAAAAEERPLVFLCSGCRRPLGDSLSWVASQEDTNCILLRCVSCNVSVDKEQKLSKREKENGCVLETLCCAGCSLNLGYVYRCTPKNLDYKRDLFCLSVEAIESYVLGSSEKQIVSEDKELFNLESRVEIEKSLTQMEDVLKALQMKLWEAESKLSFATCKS
UniProt Q9P203: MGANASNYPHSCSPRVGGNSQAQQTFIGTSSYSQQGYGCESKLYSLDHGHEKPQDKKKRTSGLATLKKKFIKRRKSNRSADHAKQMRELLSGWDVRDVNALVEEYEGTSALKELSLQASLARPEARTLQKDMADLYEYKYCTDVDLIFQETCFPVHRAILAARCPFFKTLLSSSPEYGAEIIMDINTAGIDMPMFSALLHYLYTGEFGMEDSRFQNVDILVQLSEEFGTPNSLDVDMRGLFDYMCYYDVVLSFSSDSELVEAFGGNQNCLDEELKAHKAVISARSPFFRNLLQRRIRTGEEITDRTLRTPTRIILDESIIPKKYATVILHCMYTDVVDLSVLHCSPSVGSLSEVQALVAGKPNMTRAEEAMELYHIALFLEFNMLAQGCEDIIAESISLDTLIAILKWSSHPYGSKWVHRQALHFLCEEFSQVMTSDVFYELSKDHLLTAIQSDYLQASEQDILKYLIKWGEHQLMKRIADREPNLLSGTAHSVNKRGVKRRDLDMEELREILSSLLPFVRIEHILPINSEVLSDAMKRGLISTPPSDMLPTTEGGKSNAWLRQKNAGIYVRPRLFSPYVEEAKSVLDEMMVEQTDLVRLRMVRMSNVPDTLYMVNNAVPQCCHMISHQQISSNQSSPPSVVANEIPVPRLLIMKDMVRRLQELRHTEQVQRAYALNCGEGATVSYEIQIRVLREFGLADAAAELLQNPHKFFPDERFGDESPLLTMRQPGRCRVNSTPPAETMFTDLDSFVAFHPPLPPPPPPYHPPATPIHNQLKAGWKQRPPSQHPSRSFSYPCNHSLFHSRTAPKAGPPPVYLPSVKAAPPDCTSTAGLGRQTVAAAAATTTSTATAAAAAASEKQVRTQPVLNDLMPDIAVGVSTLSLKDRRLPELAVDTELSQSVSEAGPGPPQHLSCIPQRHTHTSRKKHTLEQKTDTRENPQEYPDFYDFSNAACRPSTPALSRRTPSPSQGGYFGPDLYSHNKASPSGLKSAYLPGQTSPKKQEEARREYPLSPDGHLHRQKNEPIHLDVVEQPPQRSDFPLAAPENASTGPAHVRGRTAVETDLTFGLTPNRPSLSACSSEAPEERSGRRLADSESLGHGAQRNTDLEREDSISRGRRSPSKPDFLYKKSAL
UniProt Q9P0L1: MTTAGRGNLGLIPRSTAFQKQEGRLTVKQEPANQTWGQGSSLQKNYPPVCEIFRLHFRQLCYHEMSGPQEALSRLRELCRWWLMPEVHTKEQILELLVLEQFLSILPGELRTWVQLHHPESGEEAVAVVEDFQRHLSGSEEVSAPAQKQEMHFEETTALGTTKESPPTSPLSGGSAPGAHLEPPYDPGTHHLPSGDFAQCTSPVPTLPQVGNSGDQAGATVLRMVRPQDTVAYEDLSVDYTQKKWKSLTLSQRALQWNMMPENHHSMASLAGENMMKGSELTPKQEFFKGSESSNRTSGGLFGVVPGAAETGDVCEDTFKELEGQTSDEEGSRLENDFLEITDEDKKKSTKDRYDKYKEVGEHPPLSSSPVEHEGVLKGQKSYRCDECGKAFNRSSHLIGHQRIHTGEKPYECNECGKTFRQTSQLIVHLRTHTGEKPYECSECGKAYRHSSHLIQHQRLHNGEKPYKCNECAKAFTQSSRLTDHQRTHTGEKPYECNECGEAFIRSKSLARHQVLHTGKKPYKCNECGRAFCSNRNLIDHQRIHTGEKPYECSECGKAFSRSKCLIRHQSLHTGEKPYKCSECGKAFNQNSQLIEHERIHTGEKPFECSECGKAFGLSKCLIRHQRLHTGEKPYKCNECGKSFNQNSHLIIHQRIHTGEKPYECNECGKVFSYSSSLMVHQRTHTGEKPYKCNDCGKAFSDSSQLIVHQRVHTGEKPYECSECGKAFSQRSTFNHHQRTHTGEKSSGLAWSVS
UniProt Q9NZN8, whole entry: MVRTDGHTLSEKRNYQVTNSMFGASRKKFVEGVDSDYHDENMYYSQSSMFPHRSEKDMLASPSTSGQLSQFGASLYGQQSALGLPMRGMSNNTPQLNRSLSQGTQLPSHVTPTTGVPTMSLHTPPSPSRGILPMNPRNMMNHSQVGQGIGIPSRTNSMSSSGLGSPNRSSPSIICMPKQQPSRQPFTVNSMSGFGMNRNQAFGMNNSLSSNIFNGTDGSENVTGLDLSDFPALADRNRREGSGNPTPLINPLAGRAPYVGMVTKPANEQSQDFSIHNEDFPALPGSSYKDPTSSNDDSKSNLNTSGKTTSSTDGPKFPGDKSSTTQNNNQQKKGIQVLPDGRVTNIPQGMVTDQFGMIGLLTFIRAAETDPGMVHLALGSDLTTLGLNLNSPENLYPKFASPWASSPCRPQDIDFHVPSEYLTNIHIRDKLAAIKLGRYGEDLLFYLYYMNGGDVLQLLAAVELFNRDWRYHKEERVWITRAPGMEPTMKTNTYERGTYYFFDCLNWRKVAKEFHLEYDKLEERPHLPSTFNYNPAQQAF
UniProt Q9P0U4, whole entry: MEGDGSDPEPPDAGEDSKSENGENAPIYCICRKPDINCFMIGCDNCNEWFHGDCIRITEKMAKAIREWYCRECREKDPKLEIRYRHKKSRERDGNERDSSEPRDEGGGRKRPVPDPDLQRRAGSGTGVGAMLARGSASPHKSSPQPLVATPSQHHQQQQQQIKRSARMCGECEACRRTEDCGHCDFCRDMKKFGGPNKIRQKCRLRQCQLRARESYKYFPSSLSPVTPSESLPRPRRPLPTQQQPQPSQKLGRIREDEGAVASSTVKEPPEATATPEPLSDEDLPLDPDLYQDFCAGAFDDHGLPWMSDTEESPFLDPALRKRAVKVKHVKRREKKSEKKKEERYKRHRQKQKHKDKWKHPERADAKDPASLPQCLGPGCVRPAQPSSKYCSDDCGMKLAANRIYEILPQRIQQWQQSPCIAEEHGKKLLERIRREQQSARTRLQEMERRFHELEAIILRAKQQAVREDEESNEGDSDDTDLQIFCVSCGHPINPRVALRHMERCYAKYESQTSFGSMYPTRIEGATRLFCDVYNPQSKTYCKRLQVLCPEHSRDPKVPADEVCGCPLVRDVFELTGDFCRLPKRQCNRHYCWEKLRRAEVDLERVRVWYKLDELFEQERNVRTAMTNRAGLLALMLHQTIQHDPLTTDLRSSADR
UniProt Q9UGP8: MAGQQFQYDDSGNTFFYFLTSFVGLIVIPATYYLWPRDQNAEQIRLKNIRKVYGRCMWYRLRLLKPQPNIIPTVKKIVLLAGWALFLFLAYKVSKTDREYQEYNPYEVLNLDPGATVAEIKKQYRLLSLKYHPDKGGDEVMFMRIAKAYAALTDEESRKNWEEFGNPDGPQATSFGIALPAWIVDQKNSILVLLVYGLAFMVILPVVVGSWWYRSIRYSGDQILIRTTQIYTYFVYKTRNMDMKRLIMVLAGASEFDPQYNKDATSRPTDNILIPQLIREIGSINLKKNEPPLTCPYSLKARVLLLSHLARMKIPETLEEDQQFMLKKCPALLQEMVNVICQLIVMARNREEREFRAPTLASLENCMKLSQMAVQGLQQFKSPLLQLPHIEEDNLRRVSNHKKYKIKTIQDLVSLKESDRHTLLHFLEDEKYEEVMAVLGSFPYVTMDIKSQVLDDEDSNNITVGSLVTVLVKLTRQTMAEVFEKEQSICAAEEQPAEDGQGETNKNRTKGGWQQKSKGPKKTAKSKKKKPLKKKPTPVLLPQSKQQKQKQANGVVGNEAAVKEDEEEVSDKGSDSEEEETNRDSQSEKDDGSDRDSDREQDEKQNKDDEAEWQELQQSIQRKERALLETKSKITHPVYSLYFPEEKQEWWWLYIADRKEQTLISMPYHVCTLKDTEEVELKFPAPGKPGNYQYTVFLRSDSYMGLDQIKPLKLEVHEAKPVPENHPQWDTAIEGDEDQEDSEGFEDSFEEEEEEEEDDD
UniProt Q9UBL3, whole entry: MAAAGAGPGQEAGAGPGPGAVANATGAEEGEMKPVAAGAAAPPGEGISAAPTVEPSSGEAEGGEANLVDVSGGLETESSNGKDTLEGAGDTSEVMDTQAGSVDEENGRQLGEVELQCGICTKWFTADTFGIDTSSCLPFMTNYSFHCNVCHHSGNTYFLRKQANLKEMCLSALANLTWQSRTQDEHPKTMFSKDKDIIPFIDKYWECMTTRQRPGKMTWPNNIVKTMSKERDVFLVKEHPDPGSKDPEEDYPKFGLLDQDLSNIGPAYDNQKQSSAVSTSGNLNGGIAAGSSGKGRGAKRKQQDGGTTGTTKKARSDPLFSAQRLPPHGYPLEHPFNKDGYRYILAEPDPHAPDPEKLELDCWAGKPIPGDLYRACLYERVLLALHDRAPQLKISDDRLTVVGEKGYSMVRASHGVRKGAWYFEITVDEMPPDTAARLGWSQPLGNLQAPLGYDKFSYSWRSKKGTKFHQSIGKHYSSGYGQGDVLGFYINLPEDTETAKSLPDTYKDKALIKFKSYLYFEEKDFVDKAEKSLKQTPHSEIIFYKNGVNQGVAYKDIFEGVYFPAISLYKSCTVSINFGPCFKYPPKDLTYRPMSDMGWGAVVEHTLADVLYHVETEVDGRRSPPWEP

Compound: Cc1nc(Nc2ncc(C(=O)Nc3c(C)cccc3Cl)s2)cc(N2CCN(CCO)CC2)n1 [dasatinib]
Test: log2 fold change of tryptic peptide abundance, ligand vs vehicle (limited proteolysis) (log2 ratio); higher = more trypsin-susceptible (destabilized)
Details: ligand concentration: 5 uM; sample: K562 cleared lysate

| Target | log2 fold change |
| --- | --- |
| PPP4R2 (peptide sequence: LQEALKDFEKR, peptide start residue: 6) (UniProt Q9NY27) | -0.0697 |
| UniProt Q9NYP9 (peptide sequence: GCAGGCECGDKGK, peptide start residue: 12) | -0.45 |
| UniProt Q9P203 (peptide sequence: SDFPLAAPENASTGPAHVR, peptide start residue: 1037) | -0.152 |
| UniProt Q9P0L1 (peptide sequence: HSSHLIQHQR, peptide start residue: 226) | 0.3 |
| CNOT2 (peptide sequence: REGSGNPTPLINPLAGR, peptide start residue: 239) (UniProt Q9NZN8) | -0.175 |
| CXXC1 (peptide sequence: IREDEGAVASSTVK, peptide start residue: 254) (UniProt Q9P0U4) | 0.319 |
| SEC63 (peptide sequence: KKPTPVLLPQSK, peptide start residue: 534) (UniProt Q9UGP8) | 0.00569 |
| ASH2L (peptide sequence: NGVNQGVAYK, peptide start residue: 546) (UniProt Q9UBL3) | -0.488 |
